Several values for one entry are separate records, joined by “and”; a condition that tells them apart may be missing. Equal values may be shown once. Where a name gives a salt, the structure may show the parent alone. ± gives the standard deviation of the averaged measurements. The full ranking holds about 1,800 compounds; the median of “GFP- (p16Ink4a-) cell count relative to negative-control wells” is about 0.99, and the lowest 2% start at about 0.5. The list shows a part of the results.

In the test the test system is mouse p16Ink4a+/- lung fibroblasts (INKBRITE, bleomycin-injured). As to the kind of experiment: GFP- (p16Ink4a-) cell count relative to negative-control wells (fold of vehicle); higher = more p16Ink4a- cells surviving. The note with it: 1 µM; 3 days.
`Cc1ccc(C(=O)Nc2ccc(CN3CCN(C)CC3)c(C(F)(F)F)c2)cc1C#Cc1cnc2[nH]ncc2c1` [Olverembatinib] registered a GFP- of 0.581.

The compound `CN(C)C/C=C/C(=O)Nc1cc2c(Nc3ccc(F)c(Cl)c3)ncnc2cc1O[C@H]1CCOC1` [Afatinib] displayed a GFP- of 0.903.

`CCCC(C)NC(=O)c1ccc(Cl)c(Cl)c1` (configuration not stated) had a GFP- of 1.14.

`CCCc1nc(C(C)(C)O)c(C(=O)OCc2oc(=O)oc2C)n1Cc1ccc(-c2ccccc2-c2nn[nH]n2)cc1` [Olmesartan Medoxomil] yielded a GFP- of 1.05.

`C[C@@H]1C(=O)O[C@H]2[C@@H](O)C34[C@H]5C[C@@H](C(C)(C)C)C36[C@@H](OC(=O)[C@@H]6O)O[C@@]4(C(=O)O5)[C@@]12O` (some centres not stated) [Ginkgolide B]: the GFP- is 1.07.

Regarding `COC(=O)N1CCN(Cc2cccc(NC(=O)Nc3ccc(C)nc3)c2F)CC1` [Omecamtiv mecarbil], the GFP- worked out at 0.968.

`O=C(O)CCCCC(CCSCc1ccccc1)SCc1ccccc1` (configuration not stated) came in with a GFP- of 1.04.

Consider `O=C(NNc1nc2cc(F)ccc2n2cccc12)c1cnccn1`, for which the GFP- worked out at 0.693.

In turn, `CN(Cc1cnc2nc(N)nc(N)c2n1)c1ccc(C(=O)N[C@@H](CCC(=O)O)C(=O)O)cc1` [Methotrexate] showed a GFP- of 1.13.

Consider `CC(C)NC[C@H](O)COc1ccc(CCOCC2CC2)cc1` [Levobetaxolol], for which the GFP- worked out at 0.972.

For `CC/C(=C(\c1ccccc1)c1ccc(OCCN(C)C)cc1)c1ccccc1` [Tamoxifen], the GFP- was 0.989.

`O=C(Nc1cccc(C(F)(F)F)c1)Nc1cc(S(=O)(=O)NC2CC2)ccc1-c1ccsc1` came in with a GFP- of 1.05.

As for `CO/C(O)=C1\C(C)=NC(C)=C(C(=O)OCC(C)C)C1c1ccccc1[N+](=O)[O-]` (configuration not stated) [Nisoldipine], the GFP- is 1.15.

Take `CN[C@H]1CC[C@@H](c2ccc(Cl)c(Cl)c2)c2ccccc21` [Sertraline]: the GFP- came out at 0.858.

Take `CCc1c2c(nc3ccc(OC(=O)N4CCC(N5CCCCC5)CC4)cc13)-c1cc3c(c(=O)n1C2)COC(=O)[C@]3(O)CC` [Irinotecan, Irinotecan Hydrochloride (trihydrate)]: the GFP- is 0.771 and 0.928.

In the case of `CC(C(=O)O)c1ccc(C(=O)c2cccs2)cc1` (configuration not stated) [Suprofen], the GFP- was 1.06.

For the compound `Fc1ccc([C@@H]2CCNC[C@H]2COc2ccc3c(c2)OCO3)cc1` [Paroxetine], the GFP- was found to be 1.02.

For `Cn1c(=O)c2nc[nH]c2n(C)c1=O` [Aminophylline, Theophylline], the GFP- is 0.906.

In turn, `CCn1cc(C(=O)O)c(=O)c2cc(F)c(N3CCNCC3)nc21` [Enoxacin] came in with a GFP- of 1.15.

Compound `CCOc1cc2ncc(C#N)c(Nc3ccc(OCc4ccccn4)c(Cl)c3)c2cc1NC(=O)/C=C/CN(C)C` [Neratinib] had a GFP- of 1.03.

The compound `NC(CO)C(=O)NNCc1ccc(O)c(O)c1O` (configuration not stated) [Benserazide] registered a GFP- of 1.08.

Compound `O=C1Nc2ccc(I)cc2/C1=C/c1cc(Br)c(O)c(Br)c1` showed a GFP- of 1.02.

Consider `CC1=C(/C=C/C(C)=C/C=C/C(C)=C/C(=O)O)C(C)(C)CCC1` [Tretinon, Tretinoin], for which the GFP- stood at 1.13.

Regarding `Nc1nc(O)c2ncn(CCC(CO)CO)c2n1` [Penciclovir], the GFP- worked out at 1.05.

In turn, `Cc1[nH]c(/C=C2\C(=O)Nc3ccc(S(=O)(=O)N(C)c4cccc(Cl)c4)cc32)c(C)c1C(=O)N1CCN(C)CC1` came in with a GFP- of 0.704.

For the compound `CC(=O)O[C@]1(C(C)=O)CC[C@H]2[C@@H]3C[C@H](C)C4=CC(=O)CC[C@]4(C)[C@H]3CC[C@@]21C` [Medroxyprogesterone Acetate], the GFP- was 1.01.

In the case of `O=S(=O)(NCCNC/C=C/c1ccc(Br)cc1)c1cccc2cnccc12`, the GFP- came out at 1.07.

The compound `C[C@H](CCC(=O)O)[C@H]1CC[C@H]2[C@@H]3CC[C@@H]4C[C@H](O)CC[C@]4(C)[C@H]3CC[C@]12C` [Lithocholic acid] yielded a GFP- of 0.96.

`COc1c(C)c2c(c(O)c1C/C=C(\C)CCC(=O)OCCN1CCOCC1)C(=O)OC2` [Mycophenolate Mofetil] registered a GFP- of 0.685.

Compound `COC(=O)c1ccc2c(/C(=N/c3ccc(N(C)C(=O)CN4CCN(C)CC4)cc3)c3ccccc3)c(O)[nH]c2c1` [Nintedanib] gave a GFP- of 0.767.

Compound `Brc1c(NC2=NCCN2)ccc2nccnc12` [Brimonidine] yielded a GFP- of 0.918.

As for `CCC(CC)CC1(C(=O)Nc2ccccc2SC(=O)C(C)C)CCCCC1` [Dalcetrapib], the GFP- was 1.06.

`COc1ccc(-c2oc3c(CC=C(C)C)c(OC4O[C@H](CO)[C@@H](O)[C@H](O)[C@H]4O)cc(O)c3c(=O)c2OC2O[C@@H](C)[C@H](O)[C@@H](O)[C@H]2O)cc1` (some centres not stated) [Icariin] yielded a GFP- of 0.859.

With `CCOC(=O)Nc1ccc(NCc2ccc(F)cc2)nc1N` [Flupirtine], the GFP- stood at 0.964.

Take `CN(C)c1cc(NC(=O)CNC(C)(C)C)c(O)c2c1C[C@H]1C[C@H]3[C@H](N(C)C)C(=O)C(C(N)=O)=C(O)[C@@]3(O)C(=O)C1=C2O` [Tigecycline]: the GFP- turned out to be 1.11.

`CC1=C(/C=C/C(C)=C\C=C\C(C)=C/C(=O)O)C(C)(C)CCC1` [Isotretinoin]: the GFP- was determined as 1.17.

Consider `Cc1c(C(=O)NN2CCCCC2)nn(-c2ccc(Cl)cc2Cl)c1-c1ccc(I)cc1`, for which the GFP- was 1.06.

On to `C[C@]12CCC(=O)C=C1CC[C@@H]1[C@@H]2[C@@H](O)C[C@@]2(C)[C@H]1CC[C@]2(O)C(=O)CO` [Hydrocortisone], for which the GFP- was 0.999.

For the compound `O=C(CCCN1CCC(O)(c2ccc(Cl)cc2)CC1)c1ccc(F)cc1` [Haloperidol], the GFP- was determined as 1.05.

Compound `OCCN1C[C@H](O)[C@@H](O)[C@H](O)[C@H]1CO` [Miglitol] registered a GFP- of 0.976.

In turn, `CC(=O)OCC[N+](C)(C)C` [Acetylcholine] came in with a GFP- of 0.947.

The compound `CCOC(=O)[C@H](CCc1ccccc1)N[C@@H](C)C(=O)N1[C@H](C(=O)O)C[C@@H]2CCC[C@@H]21` [Ramipril] yielded a GFP- of 1.14.

As for `CC(C)CC(=O)Nc1[nH]nc2c1CN(C(=O)C1CCN(C)CC1)C2(C)C`, the GFP- stood at 0.877.

With `Nc1nc(Nc2ccc(S(N)(=O)=O)cc2)nn1C(=O)c1c(F)cccc1F`, the GFP- was 0.672 ± 0.071.

Compound `CCN(CC)CCCCNc1ncc2cc(-c3cc(OC)cc(OC)c3)c(NC(=O)NC(C)(C)C)nc2n1` returned a GFP- of 0.935.

Compound `C=C1C[C@@]2(O)O[C@@]3(C[C@H]2C(C)C)[C@@H](C)CC[C@@H]13` [Curcumol] had a GFP- of 0.992.

`CC[C@H](C)C(=O)O[C@H]1C[C@H](O)C=C2C=C[C@H](C)[C@H](CC[C@@H](O)C[C@@H](O)CC(=O)O)[C@H]21` [Pravastatin] yielded a GFP- of 0.854.

Turning to `COc1cc2c(c(OC)c1OC)-c1c(cc3c(c1OC)OCO3)C[C@@H](C)[C@@H](C)C2` [Schisandrin B], the GFP- was 1.07.

Take `C[C@@H]1CN(c2c(F)c(N)c3c(=O)c(C(=O)O)cn(C4CC4)c3c2F)C[C@H](C)N1` [Sparfloxacin]: the GFP- was found to be 1.02.

With `Cc1cc(O)nc(S)n1` [Methylthiouracil], the GFP- turned out to be 0.955.

In turn, `COc1ccc(COc2cc3oc(=O)c4cc(C(C)O)ccc4c3cc2OC)cc1` (configuration not stated) [Palomid] had a GFP- of 0.926.

Consider `C[C@H]1[C@H](OC(=O)CCC(=O)O)O[C@@H]2O[C@@]3(C)CC[C@H]4[C@H](C)CC[C@@H]1[C@@]24OO3` [Artesunate], for which the GFP- came out at 0.838.

`Cc1cccc(Nc2ccccc2C(=O)O)c1C` [Mefenamic Acid] had a GFP- of 1.01.

The compound `Nc1nccc(Oc2ccc(NC(=O)c3cncc(-c4ccc(F)cc4)c3O)cc2F)c1Cl` yielded a GFP- of 0.821.

In the case of `O=S(=O)(c1ccccc1)c1cnc2c(N3CCNCC3)cccc2c1`, the GFP- was determined as 1.

In turn, `COc1ccc(S(=O)(=O)Nc2cccnc2Nc2ccc(O)cc2)cc1` returned a GFP- of 0.6.

Take `CCCc1cc(C(N)=S)ccn1` [Protionamide, Ektebin]: the GFP- was 0.983.

`CC(C)(O)c1ccccc1CC[C@@H](SCC1(CC(=O)O)CC1)c1cccc(/C=C/c2ccc3ccc(Cl)cc3n2)c1` [Montelukast]: the GFP- amounted to 1.1.

Consider `CC(C)(C)C(=O)C(Oc1ccc(Cl)cc1)n1ccnc1` (configuration not stated) [Climbazole], for which the GFP- is 0.905.

Turning to `C=CC(C)(O)CC[C@@H]1[C@@]2(C)CCCC(C)(C)C2CC[C@@]1(C)O` (some centres not stated) [Sclareol], the GFP- stood at 0.685.

`O=C1CCC(N2C(=O)c3ccccc3C2=O)C(=O)N1` (configuration not stated) [Thalidomide] showed a GFP- of 1.2.

Consider `COc1ccc(C2(C#N)CCC(C(=O)O)CC2)cc1OC1CCCC1` (configuration not stated) [Cilomilast], for which the GFP- was 1.13.

`CC(C)(C)c1cc(NC(=O)Nc2ccc(-c3cn4c(n3)sc3cc(OCCN5CCOCC5)ccc34)cc2)no1` [Quizartinib] yielded a GFP- of 0.936.

As for `CC1(C)S[C@@H]2[C@H](NC(=O)Cc3ccccc3)C(=O)N2[C@H]1C(=O)O` [Benzylpenicillin], the GFP- came to 1.12.

Take `CCc1cnn2c(NCc3ccc[n+]([O-])c3)cc(N3CCCC[C@H]3CCO)nc12` [Dinaciclib]: the GFP- came to 0.383.

Regarding `Cc1cc(=O)oc2c(C=O)c(O)ccc12`, the GFP- came out at 0.965.

On to `CCOC(=O)c1ncn2c1CN(C)C(=O)c1cc(F)ccc1-2` [Flumazenil], for which the GFP- was determined as 1.11.

`COc1ccc(CCc2nc3cc(-c4c(C)noc4C)ccc3n2C[C@H](C)N2CCOCC2)cc1Cl` yielded a GFP- of 0.854 ± 0.4.

Take `Cc1c[nH]c(-c2cnc(NCCNc3ccc(C#N)cn3)nc2-c2ccc(Cl)cc2Cl)n1`: the GFP- came out at 1.14.

Consider `C=C1CC[C@H](O)C/C1=C/C=C1\CCC[C@]2(C)[C@@H]([C@H](C)CCCC(C)C)CC[C@@H]12` [Cholecalciferol], for which the GFP- was found to be 0.99.

Consider `Oc1cc(O)c(Cl)cn1` [Gimeracil], for which the GFP- came out at 0.984.

Compound `Cc1cn([C@H]2C[C@H](N=[N+]=[N-])[C@@H](CO)O2)c(=O)[nH]c1=O` [Zidovudine] displayed a GFP- of 1.09.

Turning to `Clc1ccc2c(c1)CCc1cccnc1C2=C1CCNCC1` [Desloratadine], the GFP- turned out to be 0.939.

Compound `C#Cc1cccc(Nc2ncnc3cc(OCCOC)c(OCCO)cc23)c1` came in with a GFP- of 0.823.

In turn, `Cc1[nH]nc2ccc(-c3cncc(OC[C@@H](N)Cc4ccccc4)c3)cc12` registered a GFP- of 0.767.

`O=c1c2ccccc2nc2n1CCc1c-2[nH]c2ccccc12` [Rutaecarpine]: the GFP- was 1.09.

`C=C[C@]1(C)C[C@@H](OC(=O)CS[C@@H]2C[C@H]3CC[C@@H](C2)N3C)[C@]2(C)[C@H](C)CC[C@]3(CCC(=O)[C@H]32)[C@@H](C)[C@@H]1O` [Retapamulin] showed a GFP- of 1.

Values taken from the supplement of paper PMC11060735.
